According to article doi:10.1101/2021.12.21.473709:
These are yes or no findings as the source states them, for the method shown. For some assays here: In cells and extracts the contact can be indirect. Some entries that bind do so weakly or less than the wild type. Tags and fused reporters may be left off the sequences shown.

What was measured:
[1] = target: T1, ABI5/ABF interacting protein AFP2, GAL4 fusion for yeast two-hybrid (Arabidopsis) (UniProt Q9LMX5); experiment: two-hybrid
T1 sequence: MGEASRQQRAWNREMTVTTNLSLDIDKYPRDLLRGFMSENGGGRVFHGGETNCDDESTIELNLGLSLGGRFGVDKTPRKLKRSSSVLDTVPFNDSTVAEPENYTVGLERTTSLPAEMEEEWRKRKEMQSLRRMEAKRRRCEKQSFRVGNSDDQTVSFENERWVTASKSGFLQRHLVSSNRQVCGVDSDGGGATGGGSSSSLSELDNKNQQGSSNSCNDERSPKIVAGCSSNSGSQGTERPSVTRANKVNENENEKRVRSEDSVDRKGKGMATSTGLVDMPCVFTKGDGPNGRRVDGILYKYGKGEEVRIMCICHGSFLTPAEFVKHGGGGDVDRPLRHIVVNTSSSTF

[2] = target: T2, ABA-…(ABI)5, GAL4 fusion for yeast two-hybrid (Arabidopsis) (UniProt Q9SJN0); experiment: two-hybrid
T2 sequence: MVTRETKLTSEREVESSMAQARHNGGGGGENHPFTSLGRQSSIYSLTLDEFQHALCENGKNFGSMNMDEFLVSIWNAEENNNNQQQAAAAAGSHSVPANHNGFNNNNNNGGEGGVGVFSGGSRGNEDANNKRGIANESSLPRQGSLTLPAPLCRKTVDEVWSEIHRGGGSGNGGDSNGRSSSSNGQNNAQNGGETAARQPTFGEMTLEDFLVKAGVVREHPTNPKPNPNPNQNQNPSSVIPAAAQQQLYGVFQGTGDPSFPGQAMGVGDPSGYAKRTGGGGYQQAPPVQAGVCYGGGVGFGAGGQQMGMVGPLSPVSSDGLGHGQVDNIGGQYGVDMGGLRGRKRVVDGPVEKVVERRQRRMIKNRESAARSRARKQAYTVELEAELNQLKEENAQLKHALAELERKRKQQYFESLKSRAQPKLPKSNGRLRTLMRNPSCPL

[3] = target: T3, ABI5, split YFP fusion (Arabidopsis) (UniProt Q9SJN0); experiment: split reporter
T3 sequence: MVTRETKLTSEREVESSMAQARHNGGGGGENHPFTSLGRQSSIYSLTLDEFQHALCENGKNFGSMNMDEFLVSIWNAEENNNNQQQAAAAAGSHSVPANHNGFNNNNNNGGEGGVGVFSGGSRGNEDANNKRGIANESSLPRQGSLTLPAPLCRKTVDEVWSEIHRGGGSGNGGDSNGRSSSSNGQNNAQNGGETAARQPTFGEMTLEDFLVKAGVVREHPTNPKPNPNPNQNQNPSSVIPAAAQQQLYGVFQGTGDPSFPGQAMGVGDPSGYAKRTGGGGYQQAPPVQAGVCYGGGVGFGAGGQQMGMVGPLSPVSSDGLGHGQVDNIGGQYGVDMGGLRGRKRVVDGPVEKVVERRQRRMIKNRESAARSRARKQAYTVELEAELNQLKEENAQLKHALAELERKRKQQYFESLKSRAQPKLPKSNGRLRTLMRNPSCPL

B1: ABI5/ABF interacting protein AFP1, GAL4 fusion for yeast two-hybrid (protein, UniProt Q9LQ98 1-345)
chain: MAEANERSKEMARSNSCVFPRDLLQRFISNSVEGEDDDEEEDDDEIELNLGLSLGGRFGVDKSNKLVRSSSVVVTMPLFREDHHHHQAAAMITTKVSTETVAGATRGTGLMRTTSLPAESEEEWRKRKEMQTLRRMAAKRRRSEKLRTGVGGGNSNNPEEAATATASRRRGRPSSGLPRWSATANKSGLLRQHSAGLDSLQVSGESLGGGRAAGSSSSVSELETKASSDEARSLPSTTQPQQETTTKPTNRLRRLSSVDMNMKMEPQGKGKSEMPCVFTKGDGPNGKRVDGILYRYGSGEEVRIMCVCHGDFLSPADFVKHAGGPHVDHPLRHIVVNTSSPSNLL
For B1, the binding [1] was “binds” and the binding [2] was “binds”.

B2: ABI5/ABF interacting protein AFP2, GAL4 fusion for yeast two-hybrid (protein, UniProt Q9LMX5 1-348)
chain: MGEASRQQRAWNREMTVTTNLSLDIDKYPRDLLRGFMSENGGGRVFHGGETNCDDESTIELNLGLSLGGRFGVDKTPRKLKRSSSVLDTVPFNDSTVAEPENYTVGLERTTSLPAEMEEEWRKRKEMQSLRRMEAKRRRCEKQSFRVGNSDDQTVSFENERWVTASKSGFLQRHLVSSNRQVCGVDSDGGGATGGGSSSSLSELDNKNQQGSSNSCNDERSPKIVAGCSSNSGSQGTERPSVTRANKVNENENEKRVRSEDSVDRKGKGMATSTGLVDMPCVFTKGDGPNGRRVDGILYKYGKGEEVRIMCICHGSFLTPAEFVKHGGGGDVDRPLRHIVVNTSSSTF
B2 was tested, and the binding [2] was “binds”.

B3: AFP1, split YFP fusion (protein, UniProt Q9LQ98 1-345)
chain: MAEANERSKEMARSNSCVFPRDLLQRFISNSVEGEDDDEEEDDDEIELNLGLSLGGRFGVDKSNKLVRSSSVVVTMPLFREDHHHHQAAAMITTKVSTETVAGATRGTGLMRTTSLPAESEEEWRKRKEMQTLRRMAAKRRRSEKLRTGVGGGNSNNPEEAATATASRRRGRPSSGLPRWSATANKSGLLRQHSAGLDSLQVSGESLGGGRAAGSSSSVSELETKASSDEARSLPSTTQPQQETTTKPTNRLRRLSSVDMNMKMEPQGKGKSEMPCVFTKGDGPNGKRVDGILYRYGSGEEVRIMCVCHGDFLSPADFVKHAGGPHVDHPLRHIVVNTSSPSNLL
With B3 the binding [3] was “binds”.

B4: AFP2, split YFP fusion (protein, UniProt Q9LMX5 1-348)
chain: MGEASRQQRAWNREMTVTTNLSLDIDKYPRDLLRGFMSENGGGRVFHGGETNCDDESTIELNLGLSLGGRFGVDKTPRKLKRSSSVLDTVPFNDSTVAEPENYTVGLERTTSLPAEMEEEWRKRKEMQSLRRMEAKRRRCEKQSFRVGNSDDQTVSFENERWVTASKSGFLQRHLVSSNRQVCGVDSDGGGATGGGSSSSLSELDNKNQQGSSNSCNDERSPKIVAGCSSNSGSQGTERPSVTRANKVNENENEKRVRSEDSVDRKGKGMATSTGLVDMPCVFTKGDGPNGRRVDGILYKYGKGEEVRIMCICHGSFLTPAEFVKHGGGGDVDRPLRHIVVNTSSSTF
In the case of B4, the binding [3] is reported as “binds”.
